PubChem BioAssay AID504791, Drosophila RNAi Screening Center – 2011
The deposit covers about 23,000 reagents; shown is an unselected part of those with a known target gene and a result. Of all reagents, 199 (0.86%) are marked active. 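Plate-scaled ratios behind the calls are not deposited; printed light signals are raw; many rows marked increased or decreased are still called inactive.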 A number with no mark means an inactive call. The numbers tell different reagents against one gene apart. A plus sign joins genes that one reagent is predicted to hit. The record does not give: the direction of the score.

- Screen: 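Genes whose knock-down strengthens or weakens small-RNA reporter silencing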 (primary screen)
- System: Drosophila S2-derived reporter cells
- Reagent: long dsRNA against Drosophila genes, about 150-250 ng dsRNA per well (siRNA assay); about 80-120 ng (miRNA assay)
- Timing: about 5 days (siRNA assay); about 4 days (miRNA assay)
- Treatment: copper sulfate induction of reporters: 25 µM (siRNA assay); 200 mM stated (miRNA assay), 1-2 days before reading
- Detection: 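Dual luciferase assay: Renilla to firefly signal ratio in each well, scaled to the mean ratio of its plate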
- Units: stable assay Renilla, run 1 in luminescence; stable assay firefly, run 1 in luminescence
- Hit rule: 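First-pass picks had plate-scaled ratios over 1.5 for the siRNA assay, over 1.6 for the miRNA assay, or under 0.6; two distinct dsRNAs had to score alike on retest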

With knock-down of CG18231 the results were stable assay Renilla, run 1 = 7882; stable assay firefly, run 1 = 3.56e5.
Depletion of GAPcenA (GTPase activating protein and centrosome-associated) came out at: stable assay Renilla, run 1 = 6088; stable assay firefly, run 1 = 3.48e5.
CG13526 gave stable assay Renilla, run 1 = 5868; stable assay firefly, run 1 = 3.45e5.
For Rrp4 the deposit lists stable assay Renilla, run 1 = 2.46e5; stable assay firefly, run 1 = 8.29e5.
With knock-down of chm (chameau), the screen gave stable assay Renilla, run 1 = 66433; stable assay firefly, run 1 = 3.40e5.
Knock-down of CG14062 gave: stable assay Renilla, run 1 = 6186; stable assay firefly, run 1 = 3.03e5.
Against TwdlM (TweedleM), the entry reads stable assay Renilla, run 1 = 5708; stable assay firefly, run 1 = 5.11e5.
Depletion of Naglu (N-acetyl-alpha-glucosaminidase) gave: stable assay Renilla, run 1 = 2.28e5; stable assay firefly, run 1 = 7.70e5.
For Ent3 (Equilibrative nucleoside transporter 3), the entry reads stable assay Renilla, run 1 = 7853; stable assay firefly, run 1 = 4.44e5.
For CG13708 the deposit lists stable assay Renilla, run 1 = 6414; stable assay firefly, run 1 = 4.10e5.
Against CR42548 (pseudo), the values are stable assay Renilla, run 1 = 7170; stable assay firefly, run 1 = 5.03e5.
Depletion of rn (rotund) #1 resulted in: stable assay Renilla, run 1 = 5488; stable assay firefly, run 1 = 2.18e5.
rn (rotund) #2 gave stable assay Renilla, run 1 = 6563; stable assay firefly, run 1 = 4.21e5.
rn (rotund) #3 showed stable assay Renilla, run 1 = 6703; stable assay firefly, run 1 = 4.02e5.
rn (rotund) #4 showed stable assay Renilla, run 1 = 6439; stable assay firefly, run 1 = 5.14e5.
rn (rotund) #5 showed stable assay Renilla, run 1 = 8574; stable assay firefly, run 1 = 4.19e5.
Silencing of l(3)73Ah + CG32163 came out at: stable assay Renilla, run 1 = 10110; stable assay firefly, run 1 = 6.80e5.
After knock-down of CG8001 the results were stable assay Renilla, run 1 = 8306; stable assay firefly, run 1 = 2.81e5.

Laid out differently: 3 of the entries above.
rn (rotund) #2
- stable assay Renilla, run 1: 6563
- stable assay firefly, run 1: 4.21e5

rn (rotund) #3
- stable assay Renilla, run 1: 6703
- stable assay firefly, run 1: 4.02e5

rn (rotund) #4
- stable assay Renilla, run 1: 6439
- stable assay firefly, run 1: 5.14e5

Additional results:
For KrT95D (Krueppel target at 95D), the entry reads stable assay Renilla, run 1 = 11190; stable assay firefly, run 1 = 4.08e5.
After knock-down of mRpS6 (mitochondrial ribosomal protein S6), the record shows stable assay Renilla, run 1 = 5299; stable assay firefly, run 1 = 4.56e5.
Knock-down of SCOT (Succinyl-CoA:3-ketoacid CoA transferase) came out at: stable assay Renilla, run 1 = 8890; stable assay firefly, run 1 = 3.06e5.
CG42394 + CG6567 gave stable assay Renilla, run 1 = 5398; stable assay firefly, run 1 = 3.97e5.
CG14877 showed stable assay Renilla, run 1 = 7496; stable assay firefly, run 1 = 3.94e5.
For CG4497 the deposit lists stable assay Renilla, run 1 = 15382; stable assay firefly, run 1 = 1.71e5.
Silencing of RagC-D (Ras-related GTP binding C/D) resulted in: stable siRNA reporter change reporter ratio lowered past the hit cutoff; stable assay Renilla, run 1 = 3911; stable assay firefly, run 1 = 3.47e5.
Knock-down of CG2063 resulted in: stable assay Renilla, run 1 = 6643; stable assay firefly, run 1 = 3.51e5.
With knock-down of CG3529, the screen gave stable assay Renilla, run 1 = 8284; stable assay firefly, run 1 = 4.50e5.
Against PPP1R15 (Protein phosphatase 1 regulatory subunit 15) #1, the values are stable siRNA reporter change reporter ratio lowered past the hit cutoff (active); miRNA reporter change reporter ratio raised past the hit cutoff; stable assay Renilla, run 1 = 7419; stable assay firefly, run 1 = 2.27e6.
Depletion of PPP1R15 (Protein phosphatase 1 regulatory subunit 15) #2 resulted in: miRNA reporter change reporter ratio raised past the hit cutoff (active).
